Results: PubChem BioAssay AID624297 (National Center for Advancing Translational Sciences (NCATS), 2012)
Among all 340,000 compounds or so, about 6,200 (1.8%) were called active. Inconclusive means that the source gave no clear call. Such entries were picked first, then a sample of the others. Calls come from the whole dose curve; as a rule, active = well fitted activation curve with a large enough effect; inconclusive = small, poorly fitted or top-dose-only effect; inactive = no such curve, though single readings can be large or run the other way. Potencies of inconclusive entries are doubtful fits and often do not repeat.

Test: A quantitative high throughput screen for small molecules that induce DNA re-replication in SW480 colon adenocarcinoma cells. For re-replication activation: % of control where 0% means no effect. Note: nearly all actives have a fitted effect of over 55% in size.
Conditions: Hoechst DNA content imaging, 48 h; re-replication activation: at 46.1 µM (top of the series) unless noted
Summary of the method: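 Image-based read-out: total Hoechst fluorescence of nuclei (405 nm excitation, 500-530 nm emission), with hits raising the fraction of high-intensity nuclei. SW480 colon cells incubated 48 hr with compounds at 37 C.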
Potency is the fitted concentration of half-maximal effect.

Row | SMILES | Potency | re-replication activation
1 | CC(C)(C)OC(=O)CNC(=O)c1nc[nH]c1C(=O)NCC(=O)OC(C)(C)C | inconclusive: 0.146 µM [activator, full curve, poor fit] | 
2 | COc1ccc(NC(=O)c2sc(Cl)nc2-c2ccccc2)cc1 | inconclusive: 20.6 µM [activator, single point] | 
3 | Cc1cc(C)n(Cc2ccc(NC(=O)c3ccc(COc4ccccc4Br)cc3)cc2)n1 |  | inactive: 19%
4 | CCOC(=O)c1nc2nc(-c3cccs3)cc(C(F)(F)F)n2n1 |  | inactive: 0.791%
5 | O=C(CNc1ccc(F)cc1)N/N=C/c1c(O)ccc2ccccc12 | inconclusive: 20.6 µM [activator, single point] | 
6 | Cc1ccc2nc(-c3ccccc3N)[nH]c2c1 | inconclusive: 32.6 µM [activator, partial curve, poor fit] | 
7 | O=c1oc2c(-c3cccc(F)c3)cc(O)cc2s1 | inconclusive: 23.1 µM [activator, single point] | 
8 | CCCC[n+]1ccn(-c2nc3ccccc3nc2[N-]S(=O)(=O)c2cccs2)c1 | active: 16.4 µM | 
9 | CCN(CC)C(=O)CSc1nc2cc3c(cc2c(=O)n1CCCCCC(=O)NCc1ccc(OC)cc1)OCO3 |  | inactive: 15.9%
10 | COC(=O)C1(C)NC(c2ccc(C)cc2)C2C(=O)N(c3ccc(F)cc3)C(=O)C21 (stereo not given) | inconclusive: 4.61 µM [activator, partial curve, poor fit] | 
11 | Cc1c(F)cccc1NC(=O)CCCCCC1NC(=O)NC1C (stereo not given) |  | inactive: -2.77%
12 | O=C(CN1C(=O)S/C(=C\c2ccccc2F)C1=O)NC1C=CS(=O)(=O)C1 (stereo not given) | inconclusive: 29.1 µM [activator, single point] | 
13 | CC(=O)Oc1cc(C(F)(F)F)ccc1C(=O)O |  | inactive: -0.654% [at 20.6 µM]
14 | COc1ccc(-c2c(C#N)c(N)nc3c2CCc2ccccc2-3)cc1OC | inconclusive: 5.17 µM [activator, partial curve, poor fit] | 
15 | CN(C)CCCN(C(=O)c1ccco1)c1nc2cc3c(cc2s1)OCO3 | inconclusive: 29.1 µM [activator, single point] | 
16 | O=C(CSc1ccc(Cl)cc1)Nc1ccc(-c2nc3ccccc3[nH]2)cc1 | inconclusive: 16.4 µM [activator, single point] | 
17 | COc1ccccc1-c1sc2ccccc2c1-c1ccccc1OC |  | inactive: -7.48% [at 9.22 µM]
18 | O=S(=O)(NCC(c1ccco1)N1CCN(c2ccc(F)cc2)CC1)c1ccc(F)cc1 (stereo not given) |  | inactive: 3.95%
19 | O=C(C1c2ccccc2Oc2ccccc21)N1CCN(c2ccc(Cl)cc2)CC1 |  | inactive: -6.54%
20 | CCC(C)Nc1nc(-c2c[nH]c3ccccc23)cs1 (stereo not given) | inconclusive: 18.4 µM [activator, single point] | 

Reformatted: results already given.
Row,SMILES,Potency,re-replication activation
13,CC(=O)Oc1cc(C(F)(F)F)ccc1C(=O)O,,inactive: -0.654% [at 20.6 µM]
14,COc1ccc(-c2c(C#N)c(N)nc3c2CCc2ccccc2-3)cc1OC,"inconclusive: 5.17 µM [activator, partial curve, poor fit]",
